Results from article PMC4849774.

Chains of the proteins cited; added tags and fusions are not shown. Lines headed by an entry give the natural chain unless they say otherwise; changes in a name come on top.
UniProt Q9DC28: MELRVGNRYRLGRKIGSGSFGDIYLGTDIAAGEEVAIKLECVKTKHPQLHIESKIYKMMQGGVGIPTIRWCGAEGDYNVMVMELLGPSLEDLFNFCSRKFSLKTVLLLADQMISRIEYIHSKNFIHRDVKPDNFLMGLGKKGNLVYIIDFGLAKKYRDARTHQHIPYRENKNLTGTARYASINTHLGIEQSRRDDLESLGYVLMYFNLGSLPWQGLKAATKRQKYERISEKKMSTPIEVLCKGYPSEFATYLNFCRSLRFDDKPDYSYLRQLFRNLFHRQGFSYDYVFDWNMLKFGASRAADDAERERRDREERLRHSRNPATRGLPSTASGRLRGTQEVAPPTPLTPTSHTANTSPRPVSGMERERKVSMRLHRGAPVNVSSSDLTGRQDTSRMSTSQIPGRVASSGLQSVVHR
UniProt P06537: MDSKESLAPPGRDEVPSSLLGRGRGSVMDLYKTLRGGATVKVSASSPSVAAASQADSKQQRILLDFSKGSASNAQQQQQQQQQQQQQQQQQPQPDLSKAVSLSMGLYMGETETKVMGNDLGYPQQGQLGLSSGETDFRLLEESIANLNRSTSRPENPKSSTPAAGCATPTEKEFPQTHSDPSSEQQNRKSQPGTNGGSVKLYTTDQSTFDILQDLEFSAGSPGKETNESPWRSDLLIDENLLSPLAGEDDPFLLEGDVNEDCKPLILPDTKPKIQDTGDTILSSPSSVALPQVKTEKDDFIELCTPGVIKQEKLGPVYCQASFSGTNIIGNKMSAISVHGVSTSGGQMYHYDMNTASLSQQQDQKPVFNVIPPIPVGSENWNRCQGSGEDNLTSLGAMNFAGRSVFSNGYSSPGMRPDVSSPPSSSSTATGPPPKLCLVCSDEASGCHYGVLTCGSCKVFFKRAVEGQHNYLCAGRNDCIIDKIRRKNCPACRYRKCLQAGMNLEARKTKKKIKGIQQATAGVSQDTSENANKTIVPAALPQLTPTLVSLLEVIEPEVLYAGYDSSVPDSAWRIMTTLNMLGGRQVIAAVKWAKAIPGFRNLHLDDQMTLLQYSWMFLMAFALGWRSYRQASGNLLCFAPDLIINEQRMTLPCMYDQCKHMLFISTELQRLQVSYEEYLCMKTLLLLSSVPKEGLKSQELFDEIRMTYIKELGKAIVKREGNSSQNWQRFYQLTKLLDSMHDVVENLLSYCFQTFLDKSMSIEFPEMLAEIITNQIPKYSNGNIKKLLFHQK
UniProt Q921F2: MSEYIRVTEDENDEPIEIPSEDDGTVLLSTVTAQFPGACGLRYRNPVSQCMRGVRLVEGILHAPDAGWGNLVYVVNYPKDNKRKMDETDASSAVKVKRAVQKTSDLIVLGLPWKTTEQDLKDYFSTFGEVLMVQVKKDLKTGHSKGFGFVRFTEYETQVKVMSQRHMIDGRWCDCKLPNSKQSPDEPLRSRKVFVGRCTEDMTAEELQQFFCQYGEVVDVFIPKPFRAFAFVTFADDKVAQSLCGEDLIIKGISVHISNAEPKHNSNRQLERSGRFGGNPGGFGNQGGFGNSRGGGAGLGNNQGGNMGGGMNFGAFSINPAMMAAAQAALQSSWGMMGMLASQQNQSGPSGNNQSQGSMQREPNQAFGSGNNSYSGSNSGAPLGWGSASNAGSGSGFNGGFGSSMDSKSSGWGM

Tests used:
Assay in all cases: affinity purification with mass spectrometry; FLAG-His-Myc-CRY1 or -CRY2 expressed in NIH3T3 cells (10 uM MG132, 6 hours), lysed with IP Buffer, precipitated with anti-FLAG M2 agarose, eluted with FLAG peptide, tryptic digestion, LC-MS/MS shotgun proteomics; FH-LacZ as control
[1] = biological target: T1, FLAG-His-Myc-CRY1 (mouse) (UniProt P97784)
T1 sequence: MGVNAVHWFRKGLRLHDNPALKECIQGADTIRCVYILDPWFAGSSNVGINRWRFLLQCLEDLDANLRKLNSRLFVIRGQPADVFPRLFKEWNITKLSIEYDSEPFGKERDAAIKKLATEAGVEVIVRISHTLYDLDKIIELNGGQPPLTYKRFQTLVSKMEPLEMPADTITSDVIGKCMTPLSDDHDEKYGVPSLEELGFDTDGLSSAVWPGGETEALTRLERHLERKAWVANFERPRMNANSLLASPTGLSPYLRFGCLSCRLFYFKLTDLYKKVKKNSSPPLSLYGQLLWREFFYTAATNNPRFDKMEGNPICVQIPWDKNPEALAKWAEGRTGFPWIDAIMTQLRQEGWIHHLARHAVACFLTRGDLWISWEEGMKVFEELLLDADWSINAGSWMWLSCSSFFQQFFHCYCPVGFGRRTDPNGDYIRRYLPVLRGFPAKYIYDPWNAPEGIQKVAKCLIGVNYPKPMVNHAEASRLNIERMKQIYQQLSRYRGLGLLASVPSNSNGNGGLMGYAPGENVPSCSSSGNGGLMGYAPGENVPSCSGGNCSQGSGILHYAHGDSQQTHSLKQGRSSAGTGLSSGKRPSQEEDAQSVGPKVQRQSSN

[2] = biological target: T2, FLAG-His-Myc-CRY2 (mouse) (UniProt Q9R194)
T2 sequence: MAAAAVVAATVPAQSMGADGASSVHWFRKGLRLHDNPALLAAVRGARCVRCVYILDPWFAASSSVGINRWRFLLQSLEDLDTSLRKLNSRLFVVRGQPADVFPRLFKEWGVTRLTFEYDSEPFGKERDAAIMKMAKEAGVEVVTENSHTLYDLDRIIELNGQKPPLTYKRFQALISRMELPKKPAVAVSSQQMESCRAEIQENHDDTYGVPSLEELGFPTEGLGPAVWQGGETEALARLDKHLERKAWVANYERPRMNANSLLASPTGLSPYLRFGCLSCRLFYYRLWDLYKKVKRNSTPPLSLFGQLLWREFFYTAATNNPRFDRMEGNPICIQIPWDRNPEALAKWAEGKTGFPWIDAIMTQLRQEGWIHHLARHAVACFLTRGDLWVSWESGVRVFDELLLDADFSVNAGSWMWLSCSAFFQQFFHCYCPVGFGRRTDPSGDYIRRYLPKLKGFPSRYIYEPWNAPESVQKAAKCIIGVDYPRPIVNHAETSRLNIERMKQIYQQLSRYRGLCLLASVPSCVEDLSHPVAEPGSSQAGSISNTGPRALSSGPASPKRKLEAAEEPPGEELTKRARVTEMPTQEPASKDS

[3] = biological target: T1, FLAG-His-Myc-CRY1 (mouse); remark: listed apart in the source
[4] = biological target: T2, FLAG-His-Myc-CRY2 (mouse); remark: listed apart in the source

## CKIδ (from UniProt Q9DC28 1-415)
[1]
  binding: binds
[2]
  binding: binds

## glucocorticoid receptor (from UniProt P06537 1-792)
[1]
  binding: binds
[2]
  binding: binds

## TAR DNA binding protein 43 (from UniProt Q921F2 1-414)
[1]
  binding: binds
[2]
  binding: binds

B1: FBXL3 (protein, UniProt Q8C4V4 1-428)
chain: MKRGGRDSDQDSAEEGTAEKPKRPRTTQERSQPCDWGNLLQDIVLHVFKYLPLLDRAHASQVCRNWNQVFHMPDLWRCFEFELNQPATSYLKATHPELIKQIIKRHSNHLQYVSFKVDSSKESAEAACDILSQLVNCSLKTLGLISTARPSFMDLPKSHFISALTVVFVNSKSLSSLKIDDTPVDDPSLKVLVANNSDTLKLLKMSSCPHVSPAGILCVADQCHGLRELALNYHLLSDELLLALSSEKHVRLEHLRIDVVSENPGQTHFHTIQKSSWDAFIKHSPKVNLVMYFFLYEEEFDPFFRYEIPATHLYFGRSVSKDVLGRVGMTCPRLVELVVCANGLRPLDEELIRIAERCKNLSAIGLGECEVSCSAFVEFVKMCGGRLSQLSIMEEVLIPDQKYSLEQIHWEVSKHLGRVWFPDMMPTW
[3]
  binding: binds
[4]
  binding: binds

Like-named read-outs stand apart in the source and are kept apart here. Results are given in words; binding and its absence hold for the method and conditions named. In cells and extracts the contact can be indirect. These calls come from enrichment with a bait or labelling near it, and not all partners need be listed. Sequences can lack the tags named with a protein.
